{
  "source": "paper PMC11042868",
  "key": {"[1]": {"molecular_target": "HER2 on MDA-MB-453 cells (Homo sapiens) (UniProt P04626)", "experiment": "cell binding, NIR fluorescence", "settings": "live adherent cells (1e4/well), 0.01-10 uM 5'-IRD800 aptamer in growth medium with 5% FBS, 37 C (or 4 C), 1 h, buffer salt and pH not stated, protein on the cell surface, label: 5' IRD800CW, single-stranded DNA"}, "[2]": {"molecular_target": "EGFR on MDA-MB-231 cells (HER2-negative control) (Homo sapiens) (UniProt P00533)", "experiment": "cell binding, NIR fluorescence", "settings": "HER2-negative MDA-MB-231 cells; live adherent cells (1e4/well), 0.01-10 uM 5'-IRD800 aptamer in growth medium with 5% FBS, 37 C (or 4 C), 1 h; buffer salt and pH not stated; protein on the cell surface; label: 5' IRD800CW; single-stranded DNA"}, "[3]": {"molecular_target": "HER2 on SK-BR-3 cells (Homo sapiens) (UniProt P04626)", "experiment": "cell binding, NIR fluorescence", "settings": "live adherent cells (1e4/well), 0.01-10 uM 5'-IRD800 aptamer in growth medium with 5% FBS, 37 C (or 4 C), 1 h, buffer salt and pH not stated, protein on the cell surface, label: 5' IRD800CW, single-stranded DNA"}, "[4]": {"molecular_target": "HER2 on MDA-MB-453 cells (Homo sapiens) (UniProt P04626)", "experiment": "competition with a labelled probe", "settings": "1-20 uM unlabeled vs 1 uM IRD800-HMAP7, almost complete inhibition at 20 uM; live adherent cells (1e4/well), 0.01-10 uM 5'-IRD800 aptamer in growth medium with 5% FBS, 37 C (or 4 C), 1 h; buffer salt and pH not stated; protein on the cell surface; single-stranded DNA"}},
  "note": "For at least one entry, the source does not settle the construct or the ends of the probe. At least one result comes from cells or an extract, where the contact may be indirect. For some assays here: Negatives hold for the conditions tested. For some assays here: At least one verdict rests on a figure or table, not on a statement of the authors. For some assays here: Weaker means in comparison with the reference protein, sequence or condition of that experiment.",
  "data": [
    {"sequence": "GCGCCGGCACCCCCCCGAGAATACTCCCACCACGTACACTT [M22]", "values": [
      {"measurement": "binding result", "setting": "[1]", "result": "binds"},
      {"measurement": "binding result", "setting": "[2]", "result": "no binding"},
      {"measurement": "binding result", "setting": "[3]", "result": "binds"}
    ]},
    {"sequence": "CCGCCCAAACACACGTAAACAGATGAGGAGCCGACACTGGG [HMAP7 unlabeled]", "values": [
      {"measurement": "binding result", "setting": "[4]", "result": "binds"}
    ]},
    {"sequence": "CCAATGTATGGGCGGTCGGTGGATACACGTCTTAGCGTCGT [M27]", "values": [
      {"measurement": "binding result", "setting": "[1]", "result": "binds"},
      {"measurement": "binding result", "setting": "[2]", "result": "no binding"},
      {"measurement": "binding result", "setting": "[3]", "result": "binds"}
    ]},
    {"sequence": "ACCAATCGCTCGTCATCACATAAAGAACCCCTCGAACCCCG [K10]", "values": [
      {"measurement": "binding result", "setting": "[1]", "result": "binds"},
      {"measurement": "binding result", "setting": "[2]", "result": "no binding"},
      {"measurement": "binding result", "setting": "[3]", "result": "binds"}
    ]},
    {"sequence": "CCGCCCAAACACACGTAAACAGATGAGGAGCCGACACTGGG [HMAP7 (M7)]", "values": [
      {"measurement": "binding result", "setting": "[2]", "result": "no binding"}
    ]},
    {"sequence": "CACCCAAACTTGGTCTGGATACCCCTTATGCGCGTAGTTAC [M17]", "values": [
      {"measurement": "binding result", "setting": "[1]", "result": "binds"},
      {"measurement": "binding result", "setting": "[2]", "result": "no binding"},
      {"measurement": "binding result", "setting": "[3]", "result": "binds"}
    ]},
    {"sequence": "ACCATCACGCCGACGTTTACCCACACAGCCAGAATCCCCCC [M1]", "values": [
      {"measurement": "binding result", "setting": "[1]", "result": "binds"},
      {"measurement": "binding result", "setting": "[2]", "result": "no binding"},
      {"measurement": "binding result", "setting": "[3]", "result": "binds"}
    ]},
    {"sequence": "CTCTTCGGGTGGGTGCGGGGTCCGAGTACTGTCTCACAGTG [M23]", "values": [
      {"measurement": "binding result", "setting": "[1]", "result": "binds"},
      {"measurement": "binding result", "setting": "[2]", "result": "no binding"},
      {"measurement": "binding result", "setting": "[3]", "result": "binds"}
    ]},
    {"sequence": "TGGTCAATAATGTCCGGTAAGAGGCGCACAACTGGTTCGGT [K12]", "values": [
      {"measurement": "binding result", "setting": "[1]", "result": "binds"},
      {"measurement": "binding result", "setting": "[2]", "result": "no binding"},
      {"measurement": "binding result", "setting": "[3]", "result": "binds"}
    ]},
    {"sequence": "CCCACGATCTTCGTACCGGTCAATGCTTCAGCCTTGCGACG [M9]", "values": [
      {"measurement": "binding result", "setting": "[1]; lowest affinity of the 10", "result": "binds more weakly"},
      {"measurement": "binding result", "setting": "[2]", "result": "no binding"},
      {"measurement": "binding result", "setting": "[3]; lowest affinity of the 10", "result": "binds more weakly"}
    ]},
    {"sequence": "GCCGCCGAAGAACTCTCAGCACGACCAGCCACCCCACGAGG [K15]", "values": [
      {"measurement": "binding result", "setting": "[1]", "result": "binds"},
      {"measurement": "binding result", "setting": "[2]", "result": "no binding"},
      {"measurement": "binding result", "setting": "[3]", "result": "binds"}
    ]}
  ]
}
